Laboratory results from US20150284465A1.
Results are given in words; binding and its absence hold for the method and conditions named. Some binding calls cover weakened binding; strength is not graded here.

Chains of the proteins cited; added tags and fusions are not shown. Lines headed by an entry give the natural chain unless they say otherwise; changes in a name come on top. Residues count along the entry.
UniProt P08887, residues 20-358: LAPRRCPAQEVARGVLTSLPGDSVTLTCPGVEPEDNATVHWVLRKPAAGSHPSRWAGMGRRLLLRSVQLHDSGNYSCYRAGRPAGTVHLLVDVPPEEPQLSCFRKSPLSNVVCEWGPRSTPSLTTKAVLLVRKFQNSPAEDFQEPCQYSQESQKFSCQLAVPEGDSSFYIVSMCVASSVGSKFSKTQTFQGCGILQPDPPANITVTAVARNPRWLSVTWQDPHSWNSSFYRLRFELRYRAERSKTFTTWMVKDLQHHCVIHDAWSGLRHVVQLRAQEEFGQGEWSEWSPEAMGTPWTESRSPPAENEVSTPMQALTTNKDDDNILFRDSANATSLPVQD
UniProt P55899: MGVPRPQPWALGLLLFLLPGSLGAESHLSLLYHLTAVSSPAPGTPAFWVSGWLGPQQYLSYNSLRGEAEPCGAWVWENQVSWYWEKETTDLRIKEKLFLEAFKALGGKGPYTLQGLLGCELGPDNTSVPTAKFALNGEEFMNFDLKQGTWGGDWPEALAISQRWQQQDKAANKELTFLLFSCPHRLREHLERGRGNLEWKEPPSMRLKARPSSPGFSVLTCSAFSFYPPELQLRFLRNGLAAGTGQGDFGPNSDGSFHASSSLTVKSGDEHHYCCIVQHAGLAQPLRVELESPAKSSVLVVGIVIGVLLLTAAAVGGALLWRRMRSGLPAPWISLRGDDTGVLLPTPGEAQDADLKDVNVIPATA

Experiments:
[1] = biological target: recombinant human IL-6R sR (R&D systems) (human) (UniProt P08887); assay: SPR (Biacore T100), antibody captured on Protein A, rhIL-6sR as analyte, 25 C
[2] = biological target: soluble human FcRn (complex of FcRn and β2-microglobulin) (human) (UniProt P55899); assay: SPR (Biacore 3000), human FcRn as analyte, pH 6.0

Binder | binding [1] | binding [2]
RD-6 (antibody, V domains shown) VH: QVQLQESGPGLVRPSQTLSLTCTVSGYSITSDHAWSWVRQPPGRGLEWIGYISYSGITTYNPSLKSRVTMLRDTSKNQFSLRLSSVTAADTAVYYCARLLARATAMDYWGQGSLVTVSS VL: DIQMTQSPSSLSASVGDRVTITCRASQDISSYLNWYQQKPGKAPKLLIYYTSRLHSGVPSRFSGSGSGTDFTFTISSLQPEDIATYYCQQGNTLPYTFGQGTKVEIK | binds | 
anti-IL-31 receptor antibody H0L0 with M58 constant region (antibody) heavy: QVQLVQSGAEVKKPGASVKVSCKASGYTFTGYIMNWVRQAPGQGLEWMGLINPYNGGTSYNQKFKGRVTITADESTSTAYMELSSLRSEDTAVYYCARDGYDDGPYTMDYWGQGTLVTVSASTKGPSVFPLAPSSKSTSGGTAALGCLVKDYFPEPVTVSWNSGALTSGVHTFPAVLQSSGLYSLSSVVTVPSSNFGTQTYTCNVDHKPSNTKVDKTVERKSCVECPPCPAPPVAGPSVFLFPPKPKDTLMISRTPEVTCVVVDVSQEDPEVQFNWYVDGVEVHNAKTKPREEQFNSTFRVVSVLTVVHQDWLNGKEYKCKVSNKGLPAPIEKTISKTKGQPREPQVYTLPPSQEEMTKNQVSLTCLVKGFYPSDIAVEWESNGQPENNYKTTPPMLDSDGSFFLYSKLTVDKSRWQEGNVFSCSVMHEALHNHYTQKSLSLSP VL: DIQMTQSPSSLSASVGDRVTITCRTSENIYSFLAWYQQKPGKAPKLLIYNAKTLAKGVPSRFSGSGSGTDFTLTISSLQPEDFATYYCQHHYESPLTFGGGTKVEIK |  | binds
RDC-4 (antibody, V domains shown) VH: QVQLQESGPGLVRPSQTLSLTCTVSGYSITSDHAWSWVRQPPGRGLEWIGYISYSGITTYNPSLKSRVTMLRDTSKNQFSLRLSSVTAADTAVYYCARTLARATAMDYWGQGSLVTVSS VL: DIQMTQSPSSLSASVGDRVTITCRASQDISSYLNWYQQKPGKAPKLLIYYTSRLHSGVPSRFSGSGSGTDFTFTISSLQPEDIATYYCQQGNTLPYTFGQGTKVEIK | binds | 
RDC-7 (antibody, V domains shown) VH: QVQLQESGPGLVRPSQTLSLTCTVSGYSITSDHAWSWVRQPPGRGLEWIGYISYSGITTYNPSLKSRVTMLRDTSKNQFSLRLSSVTAADTAVYYCARTLARITAMDYWGQGSLVTVSS VL: DIQMTQSPSSLSASVGDRVTITCRASQDISSYLNWYQQKPGKAPKLLIYYTSRLHSGVPSRFSGSGSGTDFTFTISSLQPEDIATYYCQQGNTLPYTFGQGTKVEIK | binds | 
RDC-8 (antibody, V domains shown) VH: QVQLQESGPGLVRPSQTLSLTCTVSGYSITSDHAWSWVRQPPGRGLEWIGYISYSGITTYNPSLKSRVTMLRDTSKNQFSLRLSSVTAADTAVYYCARLLARITAMDYWGQGSLVTVSS VL: DIQMTQSPSSLSASVGDRVTITCRASQDISSYLNWYQQKPGKAPKLLIYYTSRLHSGVPSRFSGSGSGTDFTFTISSLQPEDIATYYCQQGNTLPYTFGQGTKVEIK | binds | 
